We go through 2 molecules from article PMC12268982.

Results are given in words; binding and its absence hold for the method and conditions named. In cells and extracts the contact can be indirect. Binding calls can cover weak binding; strength is not graded here. Sequences can lack the tags named with a protein.

The assay has as its target rab5 (mouse (endogenous in hippocampal synaptosomes)). Description: pull-down; GTP-agarose beads (Sigma G9768) with 200 ug of hippocampal synaptosome lysate from non-Tg or Thy1-APPL1 mice, overnight at 4°C; 50 mM Tris-HCl pH 7.5, 250 mM NaCl, 5 mM Mg acetate, 0.5% Triton X-100; three washes; blots with anti-APPL1 and anti-rab5.

B1: APPL1 (Adaptor Protein containing Pleckstrin homology domain, Phosphotyrosine binding domain, and Leucine zipper motif) (protein, UniProt Q8K3H0 1-707)
chain: MPGIDKLPIEETLEDSPQTRSLLGVFEEDATAISNYMNQLYQAMHRIYDAQNELSAATHLTSKLLKEYEKQRFPLGGDDEVMSSTLQQFSKVIDELSSCHAVLSTQLADAMMFPISQFKERDLKEILTLKEVFQIASNDHDAAINRYSRLSKKRENDKVKYEVTEDVYTSRKKQHQTMMHYFCALNTLQYKKKIALLEPLLGYMQAQISFFKMGSENLNGQLEEFLANIGTSVQNVRREMDGDVETMQQTIEDLEVASDPLYLPDPDPTKFPINRNLTRKAGYLNARNKTGLVSSTWDRQFYFTQGGNLMSQARGDVAGGLAMDIDNCSVMAVDCEDRRYCFQITSFDGKKSSILQAESKKDHEEWICTINNISKQIYLSENPEETAARVNQSALEAVTPSPSFQQRHESLRPGGQSRPPTARTSSSGSLGSESTNLAALSLDSLVAPDTPIQFDIISPVCEDQPGQAKAFGQGGRRTNPFGESGGSTKSETEDSILHQLFIVRFLGSMEVKSDDHPDVVYETMRQILAARAIHNIFRMTESHLLVTCDCLKLIDPQTQVTRLTFPLPCVVLYATHQENKRLFGFVLRTSGGRSESNLSSVCYIFESNNEGEKICDSVGLAKQIALHAELDRRASEKQKEIERVKEKQQKELSKQKQIEKDLEEQSRLIAASSRPNQAGSEGQLVLSSSQSEESDLGEEGKKRESEA
On to B1, for which the binding entry is “binds”.

B2: human APPL1, Flag-tagged, Thy1-APPL1 transgene (protein, UniProt Q9UKG1 1-709)
chain: MPGIDKLPIEETLEDSPQTRSLLGVFEEDATAISNYMNQLYQAMHRIYDAQNELSAATHLTSKLLKEYEKQRFPLGGDDEVMSSTLQQFSKVIDELSSCHAVLSTQLADAMMFPITQFKERDLKEILTLKEVFQIASNDHDAAINRYSRLSKKRENDKVKYEVTEDVYTSRKKQHQTMMHYFCALNTLQYKKKIALLEPLLGYMQAQISFFKMGSENLNEQLEEFLANIGTSVQNVRREMDSDIETMQQTIEDLEVASDPLYVPDPDPTKFPVNRNLTRKAGYLNARNKTGLVSSTWDRQFYFTQGGNLMSQARGDVAGGLAMDIDNCSVMAVDCEDRRYCFQITSFDGKKSSILQAESKKDHEEWICTINNISKQIYLSENPEETAARVNQSALEAVTPSPSFQQRHESLRPAAGQSRPPTARTSSSGSLGSESTNLAALSLDSLVAPDTPIQFDIISPVCEDQPGQAKAFGQGGRRTNPFGESGGSTKSETEDSILHQLFIVRFLGSMEVKSDDHPDVVYETMRQILAARAIHNIFRMTESHLLVTCDCLKLIDPQTQVTRLTFPLPCVVLYATHQENKRLFGFVLRTSSGRSESNLSSVCYIFESNNEGEKICDSVGLAKQIALHAELDRRASEKQKEIERVKEKQQKELNKQKQIEKDLEEQSRLIAASSRPNQASSEGQFVVLSSSQSEESDLGEGGKKRESEA
Consider B2, for which the binding result was “binds”.
